# This is one part of the list.
# B1: GS13971A-bth-447-22-447 (Bacteroides thetaiotaomicron) (protein)
# chain: EDVDNERSKGMFSASQSGFSTIEVYDLGPLNKIDLSIAKAGLEDTGGTVTFSVEQSLLDSLNNADGTSYQLLPPECYTIENATYSVSPGGDRRVTGGSLVYDPHKIYNLCGFDELKYVLPLRVSSTGTPMNSDRTATLYGFIVKEAIVRLASTGGDFVVEGGTTTSPMNLDTEISFENEWDLTTSFATKGADYVDNYNSANSTYYIPLPSDFYTLPDVTIAKGKTTGGSAISLLGETLPPGNYLLPVSLGGLSGQGDASINIDKETVANYFVIKQGGPINRDHWTVTANTEEKTGEVSAAYPHNGQTISLIDGEINTFWHSKWQGGEVAPPYEIILDMGKENSVSQLGLIARQNALTSMNLEIYAGDDGETWNLIGKYFFDGSIKTEQMVPVKACDARWIRIYIPTLGSGSSVGHLAEIYVYGTDK
# Tests used:
# Test in all cases: glycan array binding signal (z-score within array); higher = stronger binding
# Details in all cases: glycan notation: IUPAC condensed, linker removed
# [1] = biological target: Fuc(a1-2)[GalNAc(a1-3)]Gal(b1-3)GlcNAc(b1-6)GalNAc
# Summary of the method: (§1)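 Negative Z-scores can be read as non-binding. The Z-score is calculated within each array and then averaged across arrays of one protein sequence at different concentrations or buffers and across linkers. Arrays, 3228 in all, were curated from the Consortium for Functional Glycomics database and kept only where the protein sequence was available.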
# [2] = biological target: Fuc(a1-2)[GalNAc(a1-3)]Gal(b1-4)Glc
# Summary of the method: as §1
# [3] = biological target: Fuc(a1-2)[GalNAc(a1-3)]Gal(b1-4)GlcNAc
# Summary of the method: as §1
# [4] = biological target: Fuc(a1-2)[GalNAc(a1-3)]Gal(b1-4)GlcNAc(b1-2)Man
# Summary of the method: as §1
# [5] = biological target: Fuc(a1-2)[GalNAc(a1-3)]Gal(b1-4)GlcNAc(b1-2)Man(a1-3)[Fuc(a1-2)[GalNAc(a1-3)]Gal(b1-4)GlcNAc(b1-2)Man(a1-6)]Man(b1-4)GlcNAc(b1-4)GlcNAc
# Summary of the method: as §1
# [6] = biological target: Fuc(a1-2)[GalNAc(a1-3)]Gal(b1-4)GlcNAc(b1-2)Man(a1-3)[Fuc(a1-2)[GalNAc(a1-3)]Gal(b1-4)GlcNAc(b1-2)Man(a1-6)]Man(b1-4)GlcNAc(b1-4)[Fuc(a1-6)]GlcNAc
# Summary of the method: as §1
# [7] = biological target: Fuc(a1-2)[GalNAc(a1-3)]Gal(b1-4)GlcNAc(b1-3)Gal(b1-4)GlcNAc
# Summary of the method: as §1
# [8] = biological target: Fuc(a1-2)[GalNAc(a1-3)]Gal(b1-4)GlcNAc(b1-3)Gal(b1-4)GlcNAc(b1-3)Gal(b1-4)GlcNAc
# Summary of the method: as §1
# [9] = biological target: Fuc(a1-2)[GalNAc(a1-3)]Gal(b1-4)GlcNAc(b1-3)GalNAc
# Summary of the method: as §1
# [10] = biological target: Fuc(a1-2)[GalNAc(a1-3)]Gal(b1-4)GlcNAc(b1-3)[Fuc(a1-2)[GalNAc(a1-3)]Gal(b1-4)GlcNAc(b1-6)]GalNAc
# Summary of the method: as §1
# [11] = biological target: Fuc(a1-2)[GalNAc(a1-3)]Gal(b1-4)GlcNAc(b1-6)GalNAc
# Summary of the method: as §1
# [12] = biological target: Fuc(a1-2)[GalNAc(a1-3)]Gal(b1-4)[Fuc(a1-3)]GlcNAc
# Summary of the method: as §1
# [13] = biological target: Fuc(a1-2)[GalNAc(a1-3)]Gal(b1-4)[Fuc(a1-3)]GlcNAc(b1-3)GalNAc
# Summary of the method: as §1
# [14] = biological target: Fuc(a1-2)[GalNAc(a1-4)]Gal(b1-4)GlcNAc
# Summary of the method: as §1
# [15] = biological target: Fuc(a1-2)[GalNAc(b1-3)]Gal
# Summary of the method: as §1
# [16] = biological target: Fuc(a1-3)GlcNAc
# Summary of the method: as §1
# [17] = biological target: Fuc(a1-3)[Gal(b1-4)]Glc6S
# Summary of the method: as §1
# [18] = biological target: Fuc(a1-3)[Gal(b1-4)]GlcNAc
# Summary of the method: as §1
# [19] = biological target: Fuc(a1-3)[Gal(b1-4)]GlcNAc(b1-2)Man
# Summary of the method: as §1
# [20] = biological target: Fuc(a1-3)[Gal(b1-4)]GlcNAc(b1-2)Man(a1-3)[Fuc(a1-3)[Gal(b1-4)]GlcNAc(b1-2)Man(a1-6)]Man(b1-4)GlcNAc(b1-4)GlcNAc
# Summary of the method: as §1
# [21] = biological target: Fuc(a1-3)[Gal(b1-4)]GlcNAc(b1-2)Man(a1-3)[Fuc(a1-3)[Gal(b1-4)]GlcNAc(b1-2)Man(a1-6)]Man(b1-4)GlcNAc(b1-4)[Fuc(a1-6)]GlcNAc
# Summary of the method: as §1
# [22] = biological target: Fuc(a1-3)[Gal(b1-4)]GlcNAc(b1-3)Gal(b1-3)[Fuc(a1-4)]GlcNAc
# Summary of the method: as §1
# [23] = biological target: Fuc(a1-3)[Gal(b1-4)]GlcNAc(b1-3)Gal(b1-4)[Fuc(a1-3)]GlcNAc
# Summary of the method: as §1
# [24] = biological target: Fuc(a1-3)[Gal(b1-4)]GlcNAc(b1-3)Gal(b1-4)[Fuc(a1-3)]GlcNAc(b1-3)Gal(b1-4)[Fuc(a1-3)]GlcNAc
# Summary of the method: as §1
# [25] = biological target: Fuc(a1-3)[Gal(b1-4)]GlcNAc(b1-3)GalNAc
# Summary of the method: as §1
# [26] = biological target: Fuc(a1-3)[Gal(b1-4)]GlcNAc(b1-6)GalNAc
# Summary of the method: as §1
# [27] = biological target: Fuc(a1-3)[Gal(b1-4)]GlcNAc(b1-6)[Gal(b1-3)GlcNAc(b1-3)]Gal(b1-4)Glc
# Summary of the method: as §1
# [28] = biological target: Fuc(a1-3)[Gal(b1-4)]GlcNAc6S
# Summary of the method: as §1
# [29] = biological target: Fuc(a1-3)[Gal3S(b1-4)]Glc
# Summary of the method: as §1
# [30] = biological target: Fuc(a1-3)[Gal3S(b1-4)]GlcNAc
# Summary of the method: as §1
# [31] = biological target: Fuc(a1-3)[Gal3S(b1-4)]GlcNAc6S
# Summary of the method: as §1
# [32] = biological target: Fuc(a1-3)[GalNAc(b1-4)]GlcNAc
# Summary of the method: as §1
# [33] = biological target: Fuc(a1-3)[GalNAc(b1-4)]GlcNAc6S
# Summary of the method: as §1
# [34] = biological target: Fuc(a1-4)GlcNAc
# Summary of the method: as §1
# [35] = biological target: Fuc(b1-3)GlcNAc
# Summary of the method: as §1
# [36] = biological target: Gal(a1-2)Gal
# Summary of the method: as §1
# [37] = biological target: Gal(a1-3)Gal
# Summary of the method: as §1
binder,measurement,setting,value
B1,glycan array binding signal (z-score),[1],0.803
same,glycan array binding signal (z-score),[2],-0.164
same,glycan array binding signal (z-score),[3],-0.506
same,glycan array binding signal (z-score),[4],-0.648
same,glycan array binding signal (z-score),[5],0.044
same,glycan array binding signal (z-score),[6],-1.35
same,glycan array binding signal (z-score),[7],-0.622
same,glycan array binding signal (z-score),[8],-0.196
same,glycan array binding signal (z-score),[9],-1.24
same,glycan array binding signal (z-score),[10],-0.4
same,glycan array binding signal (z-score),[11],0.153
same,glycan array binding signal (z-score),[12],-0.663
same,glycan array binding signal (z-score),[13],0.236
same,glycan array binding signal (z-score),[14],-0.331
same,glycan array binding signal (z-score),[15],-0.502
same,glycan array binding signal (z-score),[16],-1.12
same,glycan array binding signal (z-score),[17],-0.214
same,glycan array binding signal (z-score),[18],0.548
same,glycan array binding signal (z-score),[19],0.16
same,glycan array binding signal (z-score),[20],1.48
same,glycan array binding signal (z-score),[21],-0.249
same,glycan array binding signal (z-score),[22],-0.356
same,glycan array binding signal (z-score),[23],0.491
same,glycan array binding signal (z-score),[24],-0.284
same,glycan array binding signal (z-score),[25],0.484
same,glycan array binding signal (z-score),[26],0.414
same,glycan array binding signal (z-score),[27],-1.51
same,glycan array binding signal (z-score),[28],-0.084
same,glycan array binding signal (z-score),[29],0.389
same,glycan array binding signal (z-score),[30],-0.59
same,glycan array binding signal (z-score),[31],-0.045
same,glycan array binding signal (z-score),[32],-0.203
same,glycan array binding signal (z-score),[33],0.133
same,glycan array binding signal (z-score),[34],12.2
same,glycan array binding signal (z-score),[35],-1.09
same,glycan array binding signal (z-score),[36],0.221
same,glycan array binding signal (z-score),[37],0.937

# A second format for part of the listing above:
binder	measurement	setting	value
B1	glycan array binding signal (z-score)	[16]	-1.12
same	glycan array binding signal (z-score)	[17]	-0.214
same	glycan array binding signal (z-score)	[18]	0.548
same	glycan array binding signal (z-score)	[19]	0.16
same	glycan array binding signal (z-score)	[20]	1.48
same	glycan array binding signal (z-score)	[21]	-0.249
same	glycan array binding signal (z-score)	[22]	-0.356
same	glycan array binding signal (z-score)	[23]	0.491
